Data as given in PubChem BioAssay AID1671195 (Yale University, 2021)

Aim: 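Regulators of LDL receptor activity judged by labelled LDL uptake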 (primary screen)
Cells: human Huh7 hepatoma cells
Reagents: siRNA pool against human genes, 18 nM
Time to read-out: about 2 to 2.5 days of knockdown, then 8 h LDL uptake
Treatment: DiI-labelled LDL at 30 µg/ml for 8 h, in lipoprotein-deficient serum medium
Measurement: 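Per-cell DiI-LDL intensity by automated imaging; well means scaled to the plate median and given as a robust z-score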
Reading the numbers: robust z-score: higher = more LDL uptake after knockdown
Call rule: 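Active when two or more replicates show a robust z-score above 2 or below -2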
In all, the deposit lists about 22,000 reagents; below is a random part of them. In the full data, about 1,510 (6.9%) are marked active. 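Active includes knockdowns raising or lowering LDL uptake; positive z-scores mean more uptake, negative mean less.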 Reagents against one gene are numbered here.

gene	reagent	robust z-score, replicate 1	robust z-score, replicate 2	robust z-score, replicate 3	outcome
PDHB	1	0.102	0.808	0.492	inactive
RNASE3	1	-0.85	-1.13	-0.77	inactive
GAPDHP74	1	0.284	0.292	0.284	inactive
ADAP1	1	0.0854	-0.0528	-0.0754	inactive
HAPLN3	1	0.633	1.34	0.664	inactive
ENPP4	1	-1.03	-0.463	-0.862	inactive
RIPPLY3	1	-0.162	-0.958	-0.182	inactive
MRPL40	1	-0.835	-1.47	0.0387	inactive
COX5B	1	0.162	0.142	0.194	inactive
TM9SF2	1	0.776	1.03	0.981	inactive
UBXN4	1	0.0596	-0.924	0.00939	inactive
ARL16	1	0.0833	0.162	0.000146	inactive
ANKRD36	1	0.913	1.06	0.665	inactive
MAPDA	1	-0.376	-1.16	-0.52	inactive
MAST4	1	0.218	-0.237	-0.126	inactive
MAST4	2	-0.0779	-0.227	-0.0493	inactive
TFCP2L1	1	-0.923	-0.639	-0.803	inactive
SLC1A5	1	-0.726	-0.364	-0.346	inactive
KRT18P38	1	-0.471	-1.13	-1.1	inactive
ZNF155	1	2.29	2.57	1.83	active
ATG4B	1	-1.13	-0.893	-1.12	inactive
ADM5	1	0.0745	0.568	0.16	inactive
C10orf90	1	0.133	0.401	0.545	inactive
KCNS2	1	-0.311	0.0481	0.872	inactive
UNC45B	1	-0.499	0.0654	-0.307	inactive
SEC16A	1	1.15	1.64	1.35	inactive
TYMS	1	-0.973	-0.518	-0.871	inactive
XG	1	0.357	2.37	1.4	inactive
LOC440095 (retired record)	1	1.16	0.931	0.552	inactive
CCM2L	1	0.777	1.9	0.321	inactive
CNTN2	1	0.118	-0.568	-0.336	inactive
H4C2	1	-0.76	0.932	0.458	inactive
CSAG1	1	0.637	-0.296	0.312	inactive
NUDT21	1	-0.483	-0.404	-0.538	inactive
ZFHX4	1	0.386	0.321	-0.188	inactive
ITFG1	1	0.491	0.251	0.423	inactive
PRR29-AS1	1	-0.413	-0.476	-0.389	inactive
INO80E	1	-0.754	-0.682	-0.682	inactive
SUPT16H	1	-0.973	1.38	0.568	inactive
UMOD	1	-1.03	-1.42	-2.15	inactive
BRD9	1	-0.691	-0.555	-0.688	inactive
LOC440310 (retired record)	1	0.824	0.478	0.926	inactive
THBD	1	0.663	0.498	0.515	inactive
CLYBL	1	1.95	2.53	2.23	active
LRRC23	1	0.908	-0.979	0.0731	inactive
LOC400047 (retired record)	1	-0.133	0.886	-0.0579	inactive
RPS15	1	-0.326	-1.61	0.688	inactive
SLC6A15	1	0.275	0.487	-0.127	inactive
THEM6	1	-0.621	-1.42	-0.0516	inactive
BLID	1	1.98	2.44	2.08	active
CNN2	1	-1.28	-0.707	-0.816	inactive
DGAT2	1	1.12	1.13	0.607	inactive
RAB6B	1	-0.124	1.28	0.168	inactive
AQP11	1	-0.321	-0.152	-0.22	inactive
GJC1	1	-0.475	-0.0627	-0.758	inactive
RASGEF1C	1	1.14	1.65	1.12	inactive
ANGPTL6	1	-1.25	-0.943	-0.311	inactive
LOC389398 (retired record)	1	-1.6	-1.41	-1.53	inactive
NUCKS1	1	-0.0763	-0.79	-0.391	inactive
ZNF317	1	0.047	0.019	-0.0126	inactive
FANCE	1	0.505	1.6	1.38	inactive
RPL28P4	1	-1.14	-1.51	-1.2	inactive
CEP19	1	-0.196	0.353	0.0511	inactive
H4C6	1	-0.000865	0.127	-0.11	inactive
B3GAT1	1	-0.0541	0.225	0.0413	inactive
SPATA31C1	1	3.61	3.72	3.09	active
LOC399737 (retired record)	1	0.988	-0.0488	-0.345	inactive
NDST4	1	0.142	-0.684	0.0686	inactive

An excerpt from above, limited to “robust z-score, replicate 3”.
NUCKS1: -0.391
ZNF317: -0.0126
FANCE: 1.38
